Measured values published in publication PMC12472947 (Pharmaceuticals, 2025).

Test: Control assays of compound interference on DTNB/thiolate detection
Conditions: 415 nm, 30 min

Row | Structure (SMILES) | % Interference (compound + DTNB + ACTI) [%] | % Interference (compound + DTNB) [%] | % Interference (compound alone) [%]
1 | O=c1oc2cc(OCCN3CCCCC3)ccc2cc1-c1cn(-c2ccccc2)nn1 [Compound 1a, 3-(1-Phenyl-1H-1,2,3-triazol-4-yl)-7-(2-(piperidin-1-yl)ethoxy)-2H-chromen-2-one] | 2.77 | 0.31 | 0.06
2 | O=c1oc2cc(OCCN3CCCCC3)ccc2cc1-c1cn(Cc2ccccc2)nn1 [Compound 1h, 3-(1-Benzyl-1H-1,2,3-triazol-4-yl)-7-(2-(piperidin-1-yl)ethoxy)-2H-chromen-2-one] | 2.34 | 0.31 | 0.06
